This passage reports binding results from article PMC4065374.

For experiment [1], the target named is T1, GST-tagged Aeromonas caviae flagellin-specific chaperone FlaJ (GST-FlaJ) (Aeromonas caviae) (UniProt Q9R9R5).
T1 sequence: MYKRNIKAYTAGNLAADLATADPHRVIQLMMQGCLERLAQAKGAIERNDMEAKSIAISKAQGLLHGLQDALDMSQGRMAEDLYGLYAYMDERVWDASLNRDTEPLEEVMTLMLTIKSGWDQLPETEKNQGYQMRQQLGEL
The experiment is described as follows: pull-down; 'handover': Maf1-His–FlaA/B complex purified from wild-type A. caviae mixed with equimolar purified GST-FlaJ in vitro, then glutathione affinity chromatography; load, flow-through and elution blotted with α-His, α-GST and α-FlaA/B(+pse); both purified.

The target of experiment [2] is unglycosylated Aeromonas caviae FlaA purified from E. coli, FlaA (−pse) (Aeromonas caviae). In words: far-Western, overlay or dot blot; purified proteins resolved by SDS-PAGE and blotted; membrane incubated in PBS with purified GST or GST-FlaJ at 0.01 mg ml^−1; detected with αGST-HRP conjugate and ECL; both purified.
Experiment [3] shares this target. The experiment is described as follows: far-Western, overlay or dot blot; glycosylated and unglycosylated FlaA titrated across an SDS-PAGE gel, transferred to nitrocellulose, probed with a constant concentration of GST-FlaJ; αGST-HRP, densitometry, triplicate blots; both purified.

These are yes or no findings as the source states them, for the method shown. For part of these data: Binding can be weak; no strength is given. Where a sequence is shown, tags or fusion partners need not be part of it.

As for “Aeromonas caviae Maf1 with C-terminal penta-His tag (Maf1-His) (enzyme)”, in experiment [1], the binding entry is “no binding”.

B1: GST-tagged Aeromonas caviae flagellin-specific chaperone FlaJ (GST-FlaJ) (protein, UniProt Q9R9R5 1-140)
chain: T1 sequence
Consider B1, for which the binding result in experiment [2] and in experiment [3] was “binds” in each case.
